At least one compound was matched to its structure with a doubt left. Where a SMILES comes first, the peptide text is derived from it. [ ]: non-standard residue; d: D form. The star is where a group is joined. X1 = O=C(O)CCP(=O)(O)CN1CCN(CP(=O)(O)CCC(=O)O)CCN(CP(=O)(O)CCC(=O)NCCCn2cc(CCC(=O)*)nn2)CC1; NMeK = CN[C@@H](CCCCN)C(=O)O
Experiments:
[1] = biological target: αvβ8 (Homo sapiens, UniProt P06756+P26012); assay: solid-phase integrin binding assay, αvβ8; details: Table 4; Ga-TRAP modified compound 9
[2] = biological target: αvβ6 (Homo sapiens, UniProt P06756+P18564); assay: solid-phase integrin binding assay, αvβ6; details: Table 4; Ga-TRAP modified compound 9
Procedure: (§1) The activity and selectivity of integrin ligands were determined by a solid-phase binding assay according to the previously reported protocols using coated extracellular matrix proteins and soluble integrins: Fibronectin (Fn) for α5β1, latent activating protein (LAP) for αvβ6 and αvβ8, Vitronectin (Vn) for αvβ3 and αvβ5, Fibrinogen (Fbg) for αIIbβ3.

Chains of the proteins cited; added tags and fusions are not shown. Residues count along the entry.
UniProt P06756, 891-992 partner limits assumed: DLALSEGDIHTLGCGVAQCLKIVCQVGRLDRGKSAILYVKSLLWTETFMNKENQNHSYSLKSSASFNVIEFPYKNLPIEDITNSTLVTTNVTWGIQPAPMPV
UniProt P06756, 31-889 limits assumed: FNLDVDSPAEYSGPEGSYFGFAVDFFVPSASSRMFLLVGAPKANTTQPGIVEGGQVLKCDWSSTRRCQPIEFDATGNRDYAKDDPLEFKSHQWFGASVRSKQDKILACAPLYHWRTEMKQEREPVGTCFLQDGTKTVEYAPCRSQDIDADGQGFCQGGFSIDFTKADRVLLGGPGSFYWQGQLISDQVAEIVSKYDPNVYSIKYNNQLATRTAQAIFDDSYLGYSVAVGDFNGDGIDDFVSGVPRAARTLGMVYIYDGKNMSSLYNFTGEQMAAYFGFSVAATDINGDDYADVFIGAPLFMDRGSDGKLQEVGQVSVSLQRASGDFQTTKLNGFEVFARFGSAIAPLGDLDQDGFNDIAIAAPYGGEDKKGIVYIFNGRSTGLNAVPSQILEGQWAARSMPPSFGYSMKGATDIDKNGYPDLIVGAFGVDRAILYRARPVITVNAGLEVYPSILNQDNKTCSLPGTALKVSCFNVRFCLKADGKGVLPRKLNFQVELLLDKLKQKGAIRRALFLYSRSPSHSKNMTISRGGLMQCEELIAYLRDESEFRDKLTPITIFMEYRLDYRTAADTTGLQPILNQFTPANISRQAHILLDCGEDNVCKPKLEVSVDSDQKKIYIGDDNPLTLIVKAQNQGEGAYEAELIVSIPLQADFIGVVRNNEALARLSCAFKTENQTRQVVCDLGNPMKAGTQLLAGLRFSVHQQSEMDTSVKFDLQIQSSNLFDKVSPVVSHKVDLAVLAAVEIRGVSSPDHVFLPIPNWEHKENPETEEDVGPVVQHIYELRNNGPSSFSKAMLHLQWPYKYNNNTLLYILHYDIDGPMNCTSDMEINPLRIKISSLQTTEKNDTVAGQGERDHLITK
UniProt P06756, 891-1048 partner limits assumed: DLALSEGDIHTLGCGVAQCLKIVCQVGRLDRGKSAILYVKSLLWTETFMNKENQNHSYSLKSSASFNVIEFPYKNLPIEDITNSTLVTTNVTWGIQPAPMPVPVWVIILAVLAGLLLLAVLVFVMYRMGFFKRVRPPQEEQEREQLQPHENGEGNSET
UniProt P18564, 22-707 limits assumed: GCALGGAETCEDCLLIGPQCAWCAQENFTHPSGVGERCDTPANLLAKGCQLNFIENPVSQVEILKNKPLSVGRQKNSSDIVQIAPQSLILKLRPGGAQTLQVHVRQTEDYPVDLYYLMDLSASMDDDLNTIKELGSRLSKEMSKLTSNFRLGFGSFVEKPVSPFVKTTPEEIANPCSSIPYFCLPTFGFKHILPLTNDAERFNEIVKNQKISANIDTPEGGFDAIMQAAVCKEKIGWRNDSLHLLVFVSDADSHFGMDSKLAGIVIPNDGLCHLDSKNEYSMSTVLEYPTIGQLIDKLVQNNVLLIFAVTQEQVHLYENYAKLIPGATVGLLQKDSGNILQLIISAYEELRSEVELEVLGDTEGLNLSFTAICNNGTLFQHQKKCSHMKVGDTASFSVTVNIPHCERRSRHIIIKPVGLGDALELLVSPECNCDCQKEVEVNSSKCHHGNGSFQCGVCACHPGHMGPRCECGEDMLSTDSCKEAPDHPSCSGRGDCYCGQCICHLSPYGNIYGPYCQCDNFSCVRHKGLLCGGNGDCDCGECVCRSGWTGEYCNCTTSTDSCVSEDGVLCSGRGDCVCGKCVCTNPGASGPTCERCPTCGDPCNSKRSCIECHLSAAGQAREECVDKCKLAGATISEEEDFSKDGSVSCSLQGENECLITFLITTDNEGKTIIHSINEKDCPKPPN
UniProt P05106, 27-718 limits assumed: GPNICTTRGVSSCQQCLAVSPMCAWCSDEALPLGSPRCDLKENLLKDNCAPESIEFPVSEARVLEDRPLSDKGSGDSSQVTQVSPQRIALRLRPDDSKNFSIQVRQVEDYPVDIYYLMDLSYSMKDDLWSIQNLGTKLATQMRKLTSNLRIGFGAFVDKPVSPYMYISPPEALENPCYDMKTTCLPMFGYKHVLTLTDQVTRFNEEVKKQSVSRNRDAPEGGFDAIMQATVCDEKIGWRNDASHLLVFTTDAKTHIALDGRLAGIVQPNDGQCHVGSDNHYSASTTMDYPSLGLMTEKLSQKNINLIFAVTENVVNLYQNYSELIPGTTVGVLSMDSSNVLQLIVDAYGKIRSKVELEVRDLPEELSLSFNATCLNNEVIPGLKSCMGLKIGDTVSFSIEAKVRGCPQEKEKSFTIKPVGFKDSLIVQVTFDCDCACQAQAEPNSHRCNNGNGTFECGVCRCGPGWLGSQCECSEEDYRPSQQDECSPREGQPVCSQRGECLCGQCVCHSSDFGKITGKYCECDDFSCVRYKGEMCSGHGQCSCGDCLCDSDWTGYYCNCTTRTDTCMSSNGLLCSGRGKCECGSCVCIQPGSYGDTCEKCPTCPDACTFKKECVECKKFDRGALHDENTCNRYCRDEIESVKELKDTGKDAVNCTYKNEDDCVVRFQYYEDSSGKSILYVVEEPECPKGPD
UniProt P05106, 27-788: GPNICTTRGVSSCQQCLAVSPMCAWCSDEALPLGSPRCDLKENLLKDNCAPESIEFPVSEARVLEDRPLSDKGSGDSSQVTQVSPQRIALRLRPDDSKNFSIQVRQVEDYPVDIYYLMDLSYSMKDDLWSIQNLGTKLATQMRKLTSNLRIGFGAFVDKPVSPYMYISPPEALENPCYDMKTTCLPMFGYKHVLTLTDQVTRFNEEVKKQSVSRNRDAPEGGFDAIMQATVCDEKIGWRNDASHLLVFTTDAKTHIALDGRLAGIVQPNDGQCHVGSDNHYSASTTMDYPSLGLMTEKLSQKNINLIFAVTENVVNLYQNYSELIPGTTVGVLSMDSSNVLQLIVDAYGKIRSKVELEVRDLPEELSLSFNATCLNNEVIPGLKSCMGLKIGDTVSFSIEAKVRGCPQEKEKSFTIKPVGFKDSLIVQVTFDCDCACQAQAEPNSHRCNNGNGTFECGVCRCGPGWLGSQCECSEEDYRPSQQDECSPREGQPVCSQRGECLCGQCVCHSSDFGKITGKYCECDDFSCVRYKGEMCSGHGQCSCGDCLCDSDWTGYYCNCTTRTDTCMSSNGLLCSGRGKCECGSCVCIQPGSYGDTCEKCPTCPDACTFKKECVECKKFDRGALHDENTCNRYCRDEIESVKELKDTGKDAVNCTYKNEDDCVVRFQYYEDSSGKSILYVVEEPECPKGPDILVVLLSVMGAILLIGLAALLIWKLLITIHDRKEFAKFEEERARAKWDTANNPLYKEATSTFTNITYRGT
UniProt P18084, 24-799: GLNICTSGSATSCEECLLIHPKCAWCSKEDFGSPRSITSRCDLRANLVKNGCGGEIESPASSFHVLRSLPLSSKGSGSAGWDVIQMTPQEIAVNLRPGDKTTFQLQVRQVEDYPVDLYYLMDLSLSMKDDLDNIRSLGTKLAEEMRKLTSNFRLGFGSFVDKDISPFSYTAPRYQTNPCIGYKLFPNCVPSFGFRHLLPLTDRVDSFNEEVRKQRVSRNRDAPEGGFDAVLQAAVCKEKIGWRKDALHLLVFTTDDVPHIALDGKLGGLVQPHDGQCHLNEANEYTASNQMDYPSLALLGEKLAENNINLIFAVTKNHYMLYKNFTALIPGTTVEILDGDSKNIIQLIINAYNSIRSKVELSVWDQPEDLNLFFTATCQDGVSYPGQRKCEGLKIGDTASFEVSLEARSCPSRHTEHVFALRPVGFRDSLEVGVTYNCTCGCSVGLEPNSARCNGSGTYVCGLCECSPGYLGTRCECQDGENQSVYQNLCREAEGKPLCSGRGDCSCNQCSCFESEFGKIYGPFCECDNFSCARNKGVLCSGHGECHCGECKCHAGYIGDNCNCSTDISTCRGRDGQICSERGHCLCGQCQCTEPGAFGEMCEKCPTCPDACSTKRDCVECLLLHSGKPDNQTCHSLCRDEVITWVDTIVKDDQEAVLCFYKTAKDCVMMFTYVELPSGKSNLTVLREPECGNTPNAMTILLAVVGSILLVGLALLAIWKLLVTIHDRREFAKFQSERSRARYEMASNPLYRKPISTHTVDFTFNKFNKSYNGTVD
UniProt P08648, 895-995 partner limits assumed: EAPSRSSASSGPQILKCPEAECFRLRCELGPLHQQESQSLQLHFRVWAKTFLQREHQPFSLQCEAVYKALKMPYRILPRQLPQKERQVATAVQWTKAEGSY
UniProt P08648, 42-894 limits assumed: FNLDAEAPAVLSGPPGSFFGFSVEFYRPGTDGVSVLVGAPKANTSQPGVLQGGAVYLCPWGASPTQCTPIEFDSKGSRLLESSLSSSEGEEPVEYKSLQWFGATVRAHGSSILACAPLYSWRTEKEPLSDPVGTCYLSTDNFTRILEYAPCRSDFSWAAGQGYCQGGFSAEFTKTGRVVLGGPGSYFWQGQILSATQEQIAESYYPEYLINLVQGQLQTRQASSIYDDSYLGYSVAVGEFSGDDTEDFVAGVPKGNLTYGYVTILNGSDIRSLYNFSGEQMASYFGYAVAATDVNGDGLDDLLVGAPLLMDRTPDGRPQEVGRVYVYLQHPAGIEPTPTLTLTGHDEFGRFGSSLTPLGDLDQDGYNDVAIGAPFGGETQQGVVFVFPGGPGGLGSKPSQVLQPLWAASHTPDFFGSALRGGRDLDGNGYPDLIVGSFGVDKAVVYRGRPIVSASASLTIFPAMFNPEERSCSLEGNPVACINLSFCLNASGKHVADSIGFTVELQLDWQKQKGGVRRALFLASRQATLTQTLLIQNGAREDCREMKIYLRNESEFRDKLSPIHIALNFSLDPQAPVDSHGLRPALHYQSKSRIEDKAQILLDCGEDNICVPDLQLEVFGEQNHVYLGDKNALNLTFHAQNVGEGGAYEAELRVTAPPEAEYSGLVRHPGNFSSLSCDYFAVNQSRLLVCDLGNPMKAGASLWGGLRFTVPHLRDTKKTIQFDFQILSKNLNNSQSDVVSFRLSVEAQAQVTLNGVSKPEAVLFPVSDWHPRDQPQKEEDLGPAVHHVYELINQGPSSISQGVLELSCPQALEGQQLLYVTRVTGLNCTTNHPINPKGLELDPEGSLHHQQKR
UniProt P08514, 32-887 limits assumed: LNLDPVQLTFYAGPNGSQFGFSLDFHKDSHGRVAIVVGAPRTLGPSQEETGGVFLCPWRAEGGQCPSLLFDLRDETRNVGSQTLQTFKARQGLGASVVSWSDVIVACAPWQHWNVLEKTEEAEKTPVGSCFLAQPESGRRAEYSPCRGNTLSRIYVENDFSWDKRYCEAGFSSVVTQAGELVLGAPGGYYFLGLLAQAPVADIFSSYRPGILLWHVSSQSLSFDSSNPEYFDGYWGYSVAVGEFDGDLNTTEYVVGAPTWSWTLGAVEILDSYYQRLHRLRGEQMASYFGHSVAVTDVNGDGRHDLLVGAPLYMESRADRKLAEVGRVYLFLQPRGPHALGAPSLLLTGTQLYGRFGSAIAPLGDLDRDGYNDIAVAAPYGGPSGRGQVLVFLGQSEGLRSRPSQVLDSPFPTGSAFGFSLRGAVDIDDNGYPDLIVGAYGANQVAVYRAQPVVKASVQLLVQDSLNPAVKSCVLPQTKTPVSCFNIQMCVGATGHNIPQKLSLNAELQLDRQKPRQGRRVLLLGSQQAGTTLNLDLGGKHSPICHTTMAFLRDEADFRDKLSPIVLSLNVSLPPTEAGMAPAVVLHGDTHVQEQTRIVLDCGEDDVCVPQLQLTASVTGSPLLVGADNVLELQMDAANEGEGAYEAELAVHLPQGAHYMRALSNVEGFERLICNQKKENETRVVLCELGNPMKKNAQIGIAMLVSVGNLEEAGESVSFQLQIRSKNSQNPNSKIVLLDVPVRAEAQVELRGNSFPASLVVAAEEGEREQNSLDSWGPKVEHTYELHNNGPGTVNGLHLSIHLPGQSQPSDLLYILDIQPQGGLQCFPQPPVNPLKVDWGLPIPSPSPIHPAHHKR

[3] = biological target: αvβ3 (Homo sapiens, UniProt P05106+P06756); assay: solid-phase integrin binding assay, αvβ3; details: Table 4; Ga-TRAP modified compound 9
Procedure: as §1

[4] = biological target: αvβ5 (Homo sapiens, UniProt P06756+P18084); assay: solid-phase integrin binding assay, αvβ5; details: Table 4; Ga-TRAP modified compound 9
Procedure: as §1

[5] = biological target: α5β1 (Homo sapiens, UniProt P05556+P08648); assay: solid-phase integrin binding assay, α5β1; details: Table 4; Ga-TRAP modified compound 9
Procedure: as §1

[6] = biological target: αIIbβ3 (Homo sapiens, UniProt P05106+P08514); assay: solid-phase integrin binding assay, αIIbβ3; details: read-out: αIIbβ3, IC50; Table 4; Ga-TRAP modified compound 9
Procedure: as §1

CC(C)C[C@@H]1NC(=O)CNC(=O)[C@H](CCCCNC(=O)CCc2cn(CCCNC(=O)CCP(=O)(O)CN3CCN(CP(=O)(O)CCC(=O)O)CCN(CP(=O)(O)CCC(=O)O)CC3)nn2)N(C)C(=O)[C@H]2CCCN2C(=O)[C@H](CC(C)C)NC(=O)[C@H](CC(=O)O)NC(=O)CNC(=O)[C@H](CCCNC(=N)N)NC1=O [Compound 14, Ga-TRAP-9 (Monomer)] (cyclo(GLRGDL[dP][NMeK](X1)))
IC50 [1]: 33 nM | IC50 [2]: 357 nM | IC50 [3]: 624 nM | IC50 [4]: > 1000 nM | IC50 [5]: > 1000 nM | IC50 [6]: > 1000 nM

— patent publication US11332498B2, “Ligands for integrin αVβ8, synthesis and uses thereof” (Technische Universitat Munchen, priority 2017, dated 2022)
